Source: the supplement of paper PMC4604168 (melanoma cell lines)
The other results are listed elsewhere or left out. Many values rest on one well or one pass, so single values are uncertain.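 Imaging used 1,536-well plates; nuclei positive for cleaved PARP by antibody were divided by total DNA-stained nuclei to yield the apoptosis fraction. Doses for screening kept most cells viable, and cell lines differ markedly in resting and induced cleaved-PARP levels.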

What was measured:
Experiment in all cases: cleaved PARP positive nuclei fraction relative to DMSO control; melanoma cells; higher = more apoptosis
Conditions in all cases: library dose: low library concentration; 72 h
MZ2-MEL = tested on: MZ2-MEL
MeWo = tested on: MeWo
RPMI7951 = tested on: RPMI7951
RVH-421 = tested on: RVH-421
SkMel28 = tested on: SkMel28
SkMel30 = tested on: SkMel30
SkMel5 = tested on: SkMel5
UACC257 = tested on: UACC257
UACC62 = tested on: UACC62

Row | Structure (SMILES) | cleaved PARP positive nuclei fraction (MZ2-MEL) [%] | cleaved PARP positive nuclei fraction (MeWo) [%] | cleaved PARP positive nuclei fraction (RPMI7951) [%] | cleaved PARP positive nuclei fraction (RVH-421) [%] | cleaved PARP positive nuclei fraction (SkMel28) [%] | cleaved PARP positive nuclei fraction (SkMel30) [%] | cleaved PARP positive nuclei fraction (SkMel5) [%] | cleaved PARP positive nuclei fraction (UACC257) [%] | cleaved PARP positive nuclei fraction (UACC62) [%]
1 | C[C@]12O[C@H](C[C@]1(O)CO)n1c3ccccc3c3c4c(c5c6ccccc6n2c5c31)CNC4=O [Lestaurtinib] + CC1(C)NC(=O)N(c2ccc([N+](=O)[O-])c(C(F)(F)F)c2)C1=O [nilutamide] (first compound 0.004 µM, partner dose 1 µM) | 65.1 | 88.7 | 45.1 | 180 | 74.6 | 77.1 | 56.7 | 149 | 68.4
2 | C[C@]12O[C@H](C[C@]1(O)CO)n1c3ccccc3c3c4c(c5c6ccccc6n2c5c31)CNC4=O [Lestaurtinib] + Cc1cc(SCc2sc(-c3ccc(C(F)(F)F)c(F)c3)nc2C)ccc1OCC(=O)O [GW0742] (first compound 0.004 µM, partner dose 2 µM) | 110 | 83.2 | 110 | 212 | 132 | 130 | 61 | 210 | 82.7
3 | Cn1nnc2c(C(N)=O)ncn2c1=O [temozolomide] + O=C(Oc1ccc([N+](=O)[O-])cc1)N1CCC(C(O)(c2ccc3c(c2)OCO3)c2ccc3c(c2)OCO3)CC1 [JZL184] (first compound 2 µM, partner dose 1 µM) | 214 | 106 | 98 | 104 | 105 | 70.1 | 61.4 | 116 | 187
4 | Cc1cc(N2CCOCC2)cc2[nH]c(-c3c(NC[C@@H](O)c4cccc(Cl)c4)cc[nH]c3=O)nc12 + O=C(Oc1ccc([N+](=O)[O-])cc1)N1CCC(C(O)(c2ccc3c(c2)OCO3)c2ccc3c(c2)OCO3)CC1 [JZL184] (first compound 0.2 µM, partner dose 1 µM) | 234 | 60 | 80.8 | 162 | 111 | 18.3 | 228 | 192 | 84.6
5 | C[C@]12O[C@H](C[C@]1(O)CO)n1c3ccccc3c3c4c(c5c6ccccc6n2c5c31)CNC4=O [Lestaurtinib] + O=C(O)C(=O)Nc1sc2c(c1C(=O)O)CCNC2 [TCS401] (first compound 0.004 µM, partner dose 1.66667 µM) | 27.5 | 41.7 | 58.2 | 78.7 | 95.2 | 33.7 | 122 | 172 | 124
6 | COc1ccc2c(c1)CCC1C2CCC2(C)C(NCCCCCCN3C(=O)C=CC3=O)CCC12 (configuration not stated) + O=C(Oc1ccc([N+](=O)[O-])cc1)N1CCC(C(O)(c2ccc3c(c2)OCO3)c2ccc3c(c2)OCO3)CC1 [JZL184] (first compound 0.4 µM, partner dose 1 µM) | 70.1 | 71.2 | 233 | 50.5 | 143 | 99.2 | 65.1 | 151 | 39.5
7 | Cc1cc(SCc2sc(-c3ccc(C(F)(F)F)c(F)c3)nc2C)ccc1OCC(=O)O + c1cc(-c2cnn3cc(-c4ccc(OCCN5CCCCC5)cc4)cnc23)ccn1 [Dorsomorphin] (first compound 2 µM, partner dose 0.4 µM) | 81.8 | 54.1 | 178 | 25.4 | 94.4 | 42.2 | 69.1 | 105 | 172
8 | NCC(=O)Nc1ccc(-n2nc(C(F)(F)F)cc2-c2ccc3c(ccc4ccccc43)c2)cc1 + Cc1cc(SCc2sc(-c3ccc(C(F)(F)F)c(F)c3)nc2C)ccc1OCC(=O)O [GW0742] (first compound 1 µM, partner dose 2 µM) | 106 | 583 | 73.2 | 39.1 | 196 | 69.4 | 117 | 53.5 | 117
9 | C[C@]12O[C@H](C[C@]1(O)CO)n1c3ccccc3c3c4c(c5c6ccccc6n2c5c31)CNC4=O [Lestaurtinib] + N#Cc1c(O)c2c(-c3ccc(-c4ccccc4O)cc3)csc2[nH]c1=O [A769662] (first compound 0.004 µM, partner dose 2 µM) | 96.5 | 88.7 | 128 | 36.6 | 143 | 69 | 137 | 249 | 138
10 | Cc1cc(SCc2sc(-c3ccc(C(F)(F)F)c(F)c3)nc2C)ccc1OCC(=O)O + C/C(O)=C(\C#N)C(=O)Nc1cc(Br)ccc1Br [LFM-A13] (first compound 2 µM, partner dose 2 µM) | 120 | 188 | 110 | 71 | 49.3 | 17.6 | 52.7 | 56.9 | 40.5
11 | NC(=O)Nc1cc(-c2cccc(F)c2)sc1C(=O)N[C@H]1CCCNC1 + Cc1cc(SCc2sc(-c3ccc(C(F)(F)F)c(F)c3)nc2C)ccc1OCC(=O)O [GW0742] (first compound 0.02 µM, partner dose 2 µM) | 94.2 | 37.2 | 82.9 | 97.3 | 75.9 | 96.7 | 55.2 | 88.7 | 72.3
12 | CC(C)(C)c1cnc(CSc2cnc(NC(=O)C3CCNCC3)s2)o1 + C/C(O)=C(\C#N)C(=O)Nc1cc(Br)ccc1Br [LFM-A13] (first compound 0.01 µM, partner dose 2 µM) | 160 | 73 | 567 | 288 | 139 | 159 | 62.7 | 144 | 249
13 | Cc1ccc(NC(=O)c2cccc(N(C)C)c2)cc1NC(=O)c1ccc(O)cc1 + C/C(O)=C(\C#N)C(=O)Nc1cc(Br)ccc1Br [LFM-A13] (first compound 2 µM, partner dose 2 µM) | 36.9 | 53.8 | 42.8 | 181 | 86.3 | 53.1 | 60.8 | 219 | 66.6
14 | CCN(CC)CCCCNc1ncc2cc(-c3cc(OC)cc(OC)c3)c(NC(=O)NC(C)(C)C)nc2n1 + C/C(O)=C(\C#N)C(=O)Nc1cc(Br)ccc1Br [LFM-A13] (first compound 0.1 µM, partner dose 2 µM) | 135 | 179 | 48 | 123 | 59.6 | 72 | 24.7 | 95.6 | 139
15 | Cn1c(Nc2ccc(C(F)(F)F)cc2)nc2cc(Oc3ccnc(-c4ncc(C(F)(F)F)[nH]4)c3)ccc21 + C/C(O)=C(\C#N)C(=O)Nc1cc(Br)ccc1Br [LFM-A13] (first compound 0.08 µM, partner dose 2 µM) | 82.1 | 147 | 138 | 179 | 317 | 113 | 74.8 | 3050 | 256
16 | O=C(Nc1ccccc1)c1cc([N+](=O)[O-])ccc1Cl + O=C(Oc1ccc([N+](=O)[O-])cc1)N1CCC(C(O)(c2ccc3c(c2)OCO3)c2ccc3c(c2)OCO3)CC1 [JZL184] (first compound 2 µM, partner dose 1 µM) | 70.6 | 98.9 | 85.5 | 49.7 | 157 | 64.1 | 60.4 | 80.1 | 86.3
17 | COc1ccc(COc2ccc(Cc3cnc(N)nc3N)cc2OC)cc1 + Cc1cc(SCc2sc(-c3ccc(C(F)(F)F)c(F)c3)nc2C)ccc1OCC(=O)O [GW0742] (first compound 1 µM, partner dose 2 µM) | 74.2 | 53.7 | 96.5 | 33.9 | 120 | 51 | 62 | 54.1 | 78
18 | C[C@]12O[C@H](C[C@]1(O)CO)n1c3ccccc3c3c4c(c5c6ccccc6n2c5c31)CNC4=O [Lestaurtinib] + Cc1cc(N2CCOCC2)cc2[nH]c(-c3c(NC[C@@H](O)c4cccc(Cl)c4)cc[nH]c3=O)nc12 [BMS536924] (first compound 0.004 µM, partner dose 0.2 µM) | 140 | 122 | 58.4 | 36.7 | 164 | 169 | 40.1 | 166 | 91.2
19 | COc1cc2c(Oc3ccc4[nH]c(C)cc4c3F)ncnc2cc1OCCCN1CCCC1 [cediranib] + Cc1cc(SCc2sc(-c3ccc(C(F)(F)F)c(F)c3)nc2C)ccc1OCC(=O)O [GW0742] (first compound 0.4 µM, partner dose 2 µM) | 137 | 62.8 | 75.2 | 62 | 57.5 | 53.4 | 188 | 151 | 39
20 | O=C(Oc1ccc([N+](=O)[O-])cc1)N1CCC(C(O)(c2ccc3c(c2)OCO3)c2ccc3c(c2)OCO3)CC1 + CC(C)CCN1c2nc(Nc3cc(F)c(O)c(F)c3)ncc2N(C)C(=O)C1C [BID1870] (first compound 1 µM, partner dose 0.2 µM) | 316 | 50.6 | 130 | 38.1 | 189 | 241 | 63.3 | 312 | 82.8
21 | COCC[n+]1c2c(n(Cc3cnccn3)c1C)C(=O)c1ccccc1C2=O + Cc1cc(SCc2sc(-c3ccc(C(F)(F)F)c(F)c3)nc2C)ccc1OCC(=O)O [GW0742] (first compound 0.0004 µM, partner dose 2 µM) | 354 | 69.2 | 86.7 | 76.1 | 126 | 26.6 | 77.6 | 38.8 | 54.6
22 | COc1ccc2c(c1)CCC1C2CCC2(C)C(NCCCCCCN3C(=O)C=CC3=O)CCC12 (configuration not stated) + C/C(O)=C(\C#N)C(=O)Nc1cc(Br)ccc1Br [LFM-A13] (first compound 0.4 µM, partner dose 2 µM) | 203 | 59 | 48.8 | 118 | 113 | 73.6 | 61.9 | 210 | 171
23 | CN(C)S(=O)(=O)c1ccc2c(c1)/C(=C/c1cc3c([nH]1)CCCC3)C(=O)N2 + C/C(O)=C(\C#N)C(=O)Nc1cc(Br)ccc1Br [LFM-A13] (first compound 0.4 µM, partner dose 2 µM) | 89.1 | 59.6 | 92 | 18.6 | 152 | 29.7 | 68.5 | 73.2 | 198

Quoted from the listing.
Under cleaved PARP positive nuclei fraction (UACC62) [%], O=C(Nc1ccccc1)c1cc([N+](=O)[O-])ccc1Cl + O=C(Oc1ccc([N+](=O)[O-])cc1)N1CCC(C(O)(c2ccc3c(c2)OCO3)c2ccc3c(c2)OCO3)CC1 [JZL184] (first compound 2 µM, partner dose 1 µM) has the entry 86.3
Under cleaved PARP positive nuclei fraction (SkMel5) [%], COc1ccc(COc2ccc(Cc3cnc(N)nc3N)cc2OC)cc1 + Cc1cc(SCc2sc(-c3ccc(C(F)(F)F)c(F)c3)nc2C)ccc1OCC(=O)O [GW0742] (first compound 1 µM, partner dose 2 µM) has the entry 62
